# From PubChem BioAssay AID1345085 (National Center for Advancing Translational Sciences (NCATS), 2018)
# Inconclusive results, whose numbers are uncertain, are shown with a selection of clear calls. A potency beside an inconclusive call is a rough fit, not a confirmed value. Calls of active or inactive are those of the source. The call rests on the fitted dose curve; in most records, active means well fitted cell-killing curve with a large enough effect; inconclusive means small, poorly fitted or top-dose-only effect, or effect the other way; inactive means no such curve, though single readings can be large or run the other way.
# Test system: Tov-21-G
# Test: Confirmatory qHTS for gynecologic anti-cancer compounds from libraries of approved drugs and bioactive compounds; further: nearly all actives have a fitted effect of over 55% in size
# Conditions: gynecologic cancer cell panel viability, ATPlite luminescence, 48 h; series mostly up to 57.7 µM; activity change, negative = viability loss: at the top concentration
# In short: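 ATP-based luminescent viability (ATPlite) after 48 h drug treatment at 37 °C, 5% CO2, across 57.5 uM–0.977 nM in 1:3 steps. Cells seeded at 1,000 per well 16 h beforehand; IC50 values computed, HEK 293T as selectivity control.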
# On the % scale 0 is the no-effect control and ±100 the full control effect; potency means the concentration at half of the fitted maximal effect.
Structure (SMILES),Potency,"activity change, negative = viability loss"
Cc1[nH]c2ccccc2c1CCNCc1ccc(/C=C/C(=O)NO)cc1,"inconclusive: 0.544 µM [cytotoxic, full curve, poor fit]",
CN1CCN(c2ccc(OC(F)(F)F)c(Nc3ncc4c(n3)-c3c(c(C(N)=O)nn3CCO)CC4)c2)CC1,"inconclusive: 24.3 µM [cytotoxic, single point]",
COc1ccc(-c2nc3ccc(C4=NNC(=O)CC4C)cc3[nH]2)cc1 (stereo unspecified),"inconclusive: 9.68 µM [cytotoxic, partial curve, poor fit]",
CC[C@@]1(O)C(=O)OCc2c1cc1n(c2=O)Cc2cc3c(CN(C)C)c(O)ccc3nc2-1,active: 5.44 µM,
O=C(c1ccc(/C=C/c2n[nH]c3ccccc23)cc1)N1CCNCC1,"inconclusive: 24.3 µM [cytotoxic, partial curve, poor fit]",
Cc1cc(Nc2cc(N3CCN(C)CC3)nc(Sc3ccc(NC(=O)C4CC4)cc3)n2)n[nH]1,"inconclusive: 13.7 µM [cytotoxic, partial curve, poor fit]",
Cc1cc(C(=O)N2CCN(c3cccc(Cl)c3)CC2)n(-c2ccccc2)n1,"inconclusive: 3.06 µM [cytotoxic, full curve, poor fit]",
NS(=O)(=O)c1ccc(Nc2nc(OCC3CCCCC3)c3[nH]cnc3n2)cc1,,inactive: -8.8%
CCCC(Nc1nc(-c2ccc(NC(=O)NCC)c(OC)c2)ncc1C)c1cccnc1 (stereo unspecified),active: 0.0306 µM,
CN(c1nccc(=O)[nH]1)C1CCN(c2nc3ccccc3n2Cc2ccc(F)cc2)CC1,"inconclusive: 3.06 µM [rising, partial curve, poor fit]",
COCCOc1ccc2c(c1)ncn2-c1ccc2cccc(N3CCC(N)CC3)c2n1,"inconclusive: 12.2 µM [cytotoxic, full curve]",
CC(C)(C(=O)NCC(F)(F)C(F)(F)F)C(=O)NC1C(=O)Nc2ccccc2-c2ccccc21 (stereo unspecified),"inconclusive: 0.544 µM [cytotoxic, single point]",
C=CC(=O)Nc1cc2c(Nc3ccc(F)c(Cl)c3)ncnc2cc1OCCCN1CCOCC1,"inconclusive: 6.11 µM [cytotoxic, full curve, poor fit]",
COc1cc(-c2nn(C3CCC(N4CCN(C(C)=O)CC4)CC3)c3ncnc(N)c23)ccc1NC(=O)c1cc2ccccc2n1C (stereo unspecified),active: 1.09 µM,
CN1CCN(CCOc2cc(OC3CCOCC3)c3c(Nc4c(Cl)ccc5c4OCO5)ncnc3c2)CC1,active: 0.243 µM,
Cc1cc(Nc2nc(N[C@@H](C)c3ncc(F)cn3)ncc2Cl)n[nH]1,"inconclusive: 19.3 µM [cytotoxic, partial curve, poor fit]",
NC(=O)c1ccc2nc(-c3ccc(Oc4ccc(Cl)cc4)cc3)[nH]c2c1,"inconclusive: 30.6 µM [cytotoxic, single point]",
CCc1cccc(CC)c1NC(=O)N1Cc2[nH]nc(NC(=O)c3ccc(N4CCN(C)CC4)cc3)c2C1,active: 2.73 µM,
Nc1nccc(Oc2ccc(NC(=O)c3c[nH]cc(-c4ccc(F)cc4)c3=O)cc2F)c1Cl,"inconclusive: 27.3 µM [cytotoxic, partial curve, poor fit]",
Cc1ccc(C(=O)N(CCCN)C(c2nc3cc(Cl)ccc3c(=O)n2Cc2ccccc2)C(C)C)cc1 (stereo unspecified),"inconclusive: 34.3 µM [cytotoxic, single point]",
CN(C)CCC(CSc1ccccc1)Nc1ccc(S(=O)(=O)NC(=O)c2ccc(N3CCN(Cc4ccccc4-c4ccc(Cl)cc4)CC3)cc2)cc1[N+](=O)[O-] (stereo unspecified),active: 13.7 µM,
CO[C@@]12[C@H](COC(N)=O)C3=C(C(=O)C(C)=C(N)C3=O)N1C[C@@H]1N[C@@H]12,"inconclusive: 0.611 µM [rising, partial curve, poor fit]",
COC(=O)c1ccc2c(C(=Nc3ccc(N(C)C(=O)CN4CCN(C)CC4)cc3)c3ccccc3)c(O)[nH]c2c1,"inconclusive: 1.72 µM [cytotoxic, full curve, poor fit]",
CS(=O)(=O)c1ccc(-c2cnc(N)c(C(=O)Nc3ccccc3)n2)cc1,"inconclusive: 0.0043 µM [rising, full curve]",
CC(C)c1nn(-c2c(Cl)cccc2Cl)c2nc(Cc3ccc(OCCO)cc3)[nH]c(=O)c12,active: 0.0863 µM,
CN(C)CC/C=C1\c2ccccc2COc2ccccc21,"inconclusive: 0.611 µM [rising, partial curve, poor fit]",

# Complete entries, looked up by structure.
# `Nc1nccc(Oc2ccc(NC(=O)c3c[nH]cc(-c4ccc(F)cc4)c3=O)cc2F)c1Cl` is listed as Potency: inconclusive: 27.3 µM [cytotoxic, partial curve, poor fit]
# `C=CC(=O)Nc1cc2c(Nc3ccc(F)c(Cl)c3)ncnc2cc1OCCCN1CCOCC1` is listed as Potency: inconclusive: 6.11 µM [cytotoxic, full curve, poor fit]
